Literature values as cited in patent publication US6506390B2, “Progestogen-anti-progestogen regimens” (Akzo Nobel, priority 1996, dated 2003).
At least one compound was matched to its structure with a doubt left.

Tests used:
[1] = as an approximation
[2] = levonorgestrel, desogestrel and 3-keto-desogestrel compared with each other; based on practically applied doses

Compound	amount equivalent in estrogenic activity to 1 mg of 17β-estradiol [1] [mg]	relative potency in progestogenic activity [2]
C#C[C@]1(O)CC[C@H]2[C@@H]3CCc4cc(O)ccc4[C@H]3CC[C@@]21C [ethinyl estradiol]	~0.015	
C#C[C@]1(O)CC[C@H]2[C@@H]3CCC4=CC(=O)CC[C@@H]4[C@H]3CC[C@@]21CC [levonorgestrel]		relatively equipotent
